Four molecules from paper PMC11490716, “Evolutionary and molecular basis of ADP-ribosylation reversal by zinc-dependent macrodomains” (The Journal of Biological Chemistry, 2024) can be followed below.

By UniProt entry, the sequences of proteins in these tests, tags left out.
UniProt P0DN70: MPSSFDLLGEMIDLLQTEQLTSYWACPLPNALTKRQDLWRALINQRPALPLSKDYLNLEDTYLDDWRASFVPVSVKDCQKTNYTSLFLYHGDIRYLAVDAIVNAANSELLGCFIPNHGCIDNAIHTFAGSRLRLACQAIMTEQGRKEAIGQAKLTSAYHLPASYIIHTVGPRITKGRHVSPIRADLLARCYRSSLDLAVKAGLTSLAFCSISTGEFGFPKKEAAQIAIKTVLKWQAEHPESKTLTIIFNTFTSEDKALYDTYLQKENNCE
UniProt A0A0H3JT43: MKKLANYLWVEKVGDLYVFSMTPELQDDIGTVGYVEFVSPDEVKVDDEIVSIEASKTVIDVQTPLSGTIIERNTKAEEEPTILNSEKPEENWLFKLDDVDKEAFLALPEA

Assay [1] concerns the target T1, Staphylococcus aureus zinc-containing macrodomain (SauMacro) (Staphylococcus aureus) (UniProt P67343).
T1 sequence: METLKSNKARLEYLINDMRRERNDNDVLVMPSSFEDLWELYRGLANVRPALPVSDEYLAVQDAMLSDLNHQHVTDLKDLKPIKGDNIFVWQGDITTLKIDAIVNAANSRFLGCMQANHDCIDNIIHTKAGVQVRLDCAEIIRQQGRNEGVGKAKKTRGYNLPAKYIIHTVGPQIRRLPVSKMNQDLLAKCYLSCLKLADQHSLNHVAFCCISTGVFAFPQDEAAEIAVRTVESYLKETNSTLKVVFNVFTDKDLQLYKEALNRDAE
As to the kind of experiment: SEC; analytical SEC, Superdex 200 Increase 10/300 GL; proteins alone or as 1:1.2 M mixture (50 μM SauMacro, 60 μM SauGcvH-L) in TZNK/D buffer (50 mM TrisHCl pH 8, 150 mM KCl, 12 mM NaCl, 100 μM zinc acetate, 2 mM MgCl2, 5 mM DTT); fractions analysed by immunoblot; both purified. (In gel filtration, larger molecules generally elute earlier.)

Assay [2] addresses Streptococcus pyogenes zinc-containing macrodomain (SpyMacro) (Streptococcus pyogenes) (UniProt P0DN70). As to the kind of experiment: SAXS (SEC-SAXS); both purified.
Assay [3] has the same target. As to the kind of experiment: SAXS (SEC-SAXS); SpyMacro and lipoyl-SpyGcvH-L alone or as 1:1.2 M complex; Shodex KW402.5-4F column in SAXS buffer (25 mM TrisHCl pH 8, 150 mM NaCl, 2.5 mM TCEP, 3% glycerol); scatter compared with the AlphaFold 3 model of the complex; both purified.

These are yes or no findings as the source states them, for the method shown. Some results given as binding are weak or reduced against the parent protein; the word gives no strength.

On to “Staphylococcus aureus zinc-containing macrodomain (SauMacro) (from UniProt P67343 1-266) (enzyme)”, for which, in assay [1], the binding result was “no binding (tested: 50 μM)”.
As for “Streptococcus pyogenes zinc-containing macrodomain (SpyMacro) (from UniProt P0DN70 1-270) (enzyme)”, the binding result in assay [2] is “no binding”.
On to “lipoylated Staphylococcus aureus glycine cleavage system H-like protein (lipoyl-SauGcvH-L) (from UniProt A0A0H3JT43 1-110)”, for which, in assay [1], the binding entry is given as “binds”.

B1: lipoylated Streptococcus pyogenes glycine cleavage system H-like protein (lipoyl-SpyGcvH-L) (protein, UniProt P0DN69 1-110)
chain: MKKIANYLLIEKTDDRYTISMTPELQDDIGTIGYAEFTDNDHLAVDDIILNLEASKTVMSVLSPLAGAVVERNEAATLTPTLLNSEKAEENWIVVLTDVDQAAFDALEDA
modifications: lipoyl-lysine at Lys56 (lipoylated in vivo)
Consider B1, for which, in assay [3], the binding result is “binds”.
